PubChem BioAssay AID1259281 | Sanger Institute | 2017
Test: 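Screen kinases and frequently colorectal-mutated genes for lethal knock-downs and drug partners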 (primary screen). Cells: human COLO678 colorectal cancer cell line. Knock-down reagent: siRNA pool against human genes. Challenge: anchor drugs at fixed doses: BYL719 1 µM, cetuximab 5 µg/ml or trametinib 10 nM; DMSO vehicle for the siRNA-alone arm. Detection: 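Cell viability compared with non-targeting pool wells, averaged over replicates; knock-down-alone effect also as robust z-score; synergy scores set knock-down plus drug against expected joint effect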. Direction: robust z-score, siRNA alone: higher = more viable cells; strongly negative means essential; viability, siRNA alone: higher = more surviving cells; synergy score with BYL719 and synergy score with trametinib and synergy score with cetuximab: higher = stronger synergistic killing with drug. Rule for the call: 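Essential (knock-down alone) when the siRNA-alone robust z-score is below -3; otherwise no change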. Calls: active = essential (knock-down alone); inactive = no change.
This is one part, drawn at random, of 794 deposited reagents. Of all reagents, 22 (2.8%) were called active. 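Calls rest on knock-down alone only; drug synergy scores play no part in them.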 Unmarked entries are inactive. No viability above 1 is reported: the scale is capped. The record does not give: the amount of reagent, the time to read-out.

| target | PubChem SID | robust z-score, siRNA alone | viability, siRNA alone (fraction of control) | synergy score with BYL719 | synergy score with trametinib | synergy score with cetuximab |
| --- | --- | --- | --- | --- | --- | --- |
| PRKCSH | SID56479239 | 0.473 | 1 | -0.0919 | -0.0591 | -0.0681 |
| CALM2 | SID134320655 | 0.288 | 0.994 | -0.0163 | 0.0285 | 0.0657 |
| PDIK1L | SID152147170 | 0.473 | 1 | -0.0919 | 0.0448 | -0.0681 |
| PRKAR1A | SID135621428 | 0.473 | 1 | -0.0281 | -0.049 | -0.0264 |
| PIM1 | SID56478736 | 0.473 | 1 | 0.0941 | 0.0772 | 0.0144 |
| PAK5 | SID56478749 | 0.473 | 1 | 0.0176 | 0.107 | 0.0283 |
| GTF2H1 | SID56479243 | -3.22 (active) | 0.883 | -0.00197 | 0.0229 | -0.0192 |
| NEK10 | SID56478763 | 0.0221 | 0.986 | 0.0512 | 0.0195 | 0.0637 |
| CILK1 | SID152149076 | 0.473 | 1 | -0.0153 | 0.0207 | 0.0153 |
| STRADA | SID152149670 | 0.473 | 1 | 0.00791 | 0.0532 | 0.0531 |
| WEE1 | SID152152823 | -1.05 | 0.952 | 0 | 0.05 | -0.0303 |
| DDR1 | SID152155868 | 0.473 | 1 | -0.0319 | -0.0176 | -0.0626 |
| BPTF | SID152156181 | -1.19 | 0.947 | 0.00278 | 0.0305 | -0.0261 |
| LMTK2 | SID152147902 | 0.473 | 1 | 0.0179 | 0.0222 | -0.0129 |
| PPP2R1A | SID135621908 | 0.473 | 1 | 0.0304 | -0.0348 | -0.0518 |
| CDK7 | SID152150057 | 0.473 | 1 | -0.0148 | 0.0468 | -0.0242 |
| DYRK2 | SID152156553 | 0.473 | 1 | -0.0547 | 0.00407 | 0.0192 |
| BLK | SID56478485 | 0.473 | 1 | -0.00888 | 0.0212 | 0.0205 |
| TBK1 | SID56478726 | 0.473 | 1 | 0.168 | 0.0301 | -0.0295 |
| MAP3K7 | SID135620737 | 0.473 | 1 | 0.0182 | -0.00954 | 0.00826 |
| KHK | SID135621242 | 0.375 | 0.997 | 0.0475 | 0.033 | 0.0519 |

4 entries from above, ordered by “synergy score with trametinib”, lowest first.
| target | PubChem SID | robust z-score, siRNA alone | viability, siRNA alone (fraction of control) | synergy score with BYL719 | synergy score with trametinib | synergy score with cetuximab |
| --- | --- | --- | --- | --- | --- | --- |
| NEK10 | SID56478763 | 0.0221 | 0.986 | 0.0512 | 0.0195 | 0.0637 |
| CILK1 | SID152149076 | 0.473 | 1 | -0.0153 | 0.0207 | 0.0153 |
| WEE1 | SID152152823 | -1.05 | 0.952 | 0 | 0.05 | -0.0303 |
| STRADA | SID152149670 | 0.473 | 1 | 0.00791 | 0.0532 | 0.0531 |

Continued:
| target | PubChem SID | robust z-score, siRNA alone | viability, siRNA alone (fraction of control) | synergy score with BYL719 | synergy score with trametinib | synergy score with cetuximab |
| --- | --- | --- | --- | --- | --- | --- |
| SMG1 | SID152155844 | 0.473 | 1 | -0.0821 | -0.00294 | -0.0544 |
| MERTK | SID135620626 | 0.473 | 1 | 0.0159 | 0.0176 | 0.043 |
| FRK | SID56478519 | 0.0496 | 0.987 | -0.0449 | 0.0506 | -0.0762 |
| ELP1 | SID56479224 | 0.473 | 1 | -0.0522 | -0.0169 | 0.0467 |
| VRK3 | SID135620981 | 0.473 | 1 | -0.0919 | 0.0777 | 0.00619 |
| LMBR1 | SID152149374 | 0.473 | 1 | -0.0919 | 0.0106 | -0.0393 |
| CDC42BPG | SID135621430 | 0.473 | 1 | -0.0919 | -0.0418 | -0.0432 |
| HIPK4 | SID135620890 | 0.473 | 1 | -0.0919 | -0.0249 | 0.0237 |
| AGK | SID56479172 | 0.473 | 1 | -0.0919 | 0.0336 | -0.0108 |
| NR2F2 | SID134309873 | 0.473 | 1 | 0.136 | 0.0244 | -0.018 |
| ATP23 | SID152151481 | 0.473 | 1 | -0.0919 | 0.0292 | -0.0585 |
| CDK10 | SID152152801 | -1.34 | 0.943 | -0.125 | 0.0414 | -0.105 |
| PI4K2A | SID135621249 | 0.473 | 1 | -0.0787 | 0.062 | 0.00753 |
